Experimental data from patent US10258043B2, “Pesticide compositions and methods for controlling invertebrate pests” (Adama Makhteshim Ltd., priority 2012, dated 2019).
Some entries share one result that the patent states for a list of compounds.

Test system: German cockroaches
Test: Second series of evaluations: pyriproxyfen and novaluron alone and in combination on three substrates
Format: in vivo
Details: all three substrates; preliminary results
Procedure: Ceramic tile, vinyl tile, and unpainted plywood panels measuring 6″×6″ were cleaned using soapy water to remove any residue left over from the manufacturing process and left to dry overnight. Six (6) L plastic storage boxes (Sterlite®) with lids were purchased from a local hardware store (Home Depot, Riverbank, Calif.) and cleaned as well and allowed to dry. Each substrate was treated with 0.95 mL of test material (1 gallon/1,000 ft^2 equivalent) prepared in accordance with Example 1 using a Pipetteman 1000, with the material being evenly distributed over the entire surface of the substrate using an acid brush. The material was allowed to dry and the substrates were placed into the plastic storage boxes, one per box. A 5 cm Petri dish was filled with dog food and a slice of orange for nourishment, and a water tube was added for moisture. The food dish was placed directly on the treated substrate to force exposure of the cockroaches. A 6″ rolled piece of corrugated cardboard was placed in each replicate for harborage. A thin layer of petroleum jelly/mineral oil was applied to the rim to prevent escape.
Approximately forty (40) second and third instar nymphs were placed in each replicate and the lid was placed on top. Five replicates were prepared, one for each of the four treatments set forth in Table 2 and an untreated control. […]

O=C(NC(=O)c1c(F)cccc1F)Nc1ccc(OC(F)(F)C(F)OC(F)(F)F)c(Cl)c1 (racemic) [novaluron, (RS)-1-[3-chloro-4-(1,1,2-trifluoro-2-trifluoromethoxyethoxy)phenyl]-3-(2,6-difluorobenzoyl)urea]
Cockroaches dead prior to molt or during the molt, share of the test populations: < 50%
